Literature values as cited in patent US9913836B2, “Anticholinergic neuroprotective composition and methods” (priority 2012, dated 2018).

System: Tg2576 mouse model of AD
Conditions: in vivo; cited from earlier work

In the case of `COc1cc2c(cc1OC)C(=O)C(CC1CCN(Cc3ccccc3)CC1)C2` (racemic) [donepezil, (±)-2,3-dihydro-5,6-dimethoxy-2-[[1-(phenylmethyl)-4-piperidinyl]methyl]-1H-inden-1-one], the “Brain tissue soluble A-beta 1-40 and 1-42, A-beta plaque number and burden” value is listed as “significantly reduced”.
